Broadly, the AC50 is the midpoint of the concentration-response curve, whichever way the signal moves.

Our source for the AC50 values is PubChem BioAssay AID1487 (National Center for Advancing Translational Sciences (NCATS), 2009).

Molecules are shown by their SMILES. Some of the results follow. Shown are side measurements of this screen, not its main read-out; they come without a call. Most of these compounds were active or inconclusive in the main read-out, so they are no random draw. Words in brackets tell the shape of the fitted curve; partial curves, single points and poor fits give uncertain potencies.

The nature of the experiment: qHTS Assay for Modulators of Lamin A Splicing. As to conditions: HeLa LMNA splicing GFP/RFP minigene ratio, 48 h. The essentials: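 S3 HeLa stable clones carrying a lamin A-EGFP splicing minigene plus DsRed2 were seeded at 600 cells/well in Opti-MEM with 2% FBS, pin-dosed and incubated 48 h at 37°C. Acumen cytometry (488 nm) gave the GFP/RFP total-intensity ratio.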
A general note: qHTS replaces the single test concentration by a dilution series.

Where [1] appears, read: measured here: GFP splicing reporter channel.
[2] abbreviates: measured here: RFP viability control channel.

As to `Cn1cc(-c2nc3cnc(N4CCNCC4)nc3n(CCc3ccccc3)c2=O)c2ccccc21`, the AC50 by setting is: under setting [1], 12.6 µM [falling, partial curve]; under setting [2], 12.6 µM [falling, partial curve].
In the case of `CCOC(=O)C1CCCN(C(=S)Nc2cccc(Cl)c2)C1` (stereo not given), the AC50 under setting [2] was 35.5 µM [rising, single point].
On to `O=C(COC(=O)c1ccccc1C(=O)c1ccccc1)Nc1ccc(SC(F)F)cc1`, for which the concentration at half-maximal activity (AC50) under setting [2] is 14.1 µM [rising, single point].
Take `Cc1ccc(O)c(C(=O)c2cnc3c(c2)CN(CCC(C)C)C(=O)N3)c1`: the half-maximal activity concentration (AC50) is 11.2 µM [rising, partial curve] under setting [1] and 12.6 µM [rising, partial curve, poor fit] under setting [2].
With `Cc1noc(C)c1-c1nc(Nc2ccncc2)c2ccccc2n1`, the AC50 under setting [1] is 3.16 µM [falling, partial curve, poor fit].
Take `Cc1nc2cc3ccccc3cc2n1C`: under setting [2], the AC50 is 20 µM [falling, partial curve, poor fit].
Take `O=C(Nc1nnc(C2COc3ccccc3O2)o1)c1ccc(F)cc1` (stereo not given): the concentration at half-maximal activity (AC50) under setting [2] is 4.47 µM [rising, partial curve].
With `CN(C)S(=O)(=O)c1cccc(NC(=S)N/N=C/C(=O)c2ccccc2)c1`, the AC50 under setting [2] is 22.4 µM [rising, single point].
As to `O=C(N/N=C/c1c[nH]c2ccccc12)c1cccc([N+](=O)[O-])c1`, the concentration at half-maximal activity (AC50) under setting [2] is 12.6 µM [rising, partial curve, poor fit].
Still for that read-out and setting: the value for `CCCc1[nH]nc2c1C(c1ccsc1)C(C#N)=C(N)O2` (stereo not given) was 35.5 µM [falling, single point]; that for `COc1cccc(OC)c1C(=O)NC(=S)Nc1ccc2oc(=O)ccc2c1` was 11.2 µM [rising, partial curve, poor fit].
`CCC(=O)Nc1ccc(Nc2nc(C)c([N+](=O)[O-])c(Nc3ccc(NC(=O)CC)cc3)n2)cc1`: the AC50 under setting [2] was 25.1 µM [rising, single point].
As for `Cc1ccc(COc2cccc3c2CCN(Cc2ccc(F)cc2)C3=O)cc1`, the AC50 under setting [2] was 25.1 µM [rising, single point].
For `CN(CC(=O)Nc1ccc(C(N)=O)cc1)CC(=O)Nc1ccccc1Cl`, the AC50 runs as follows: under setting [1], 0.01 µM [rising, full curve, poor fit]; under setting [2], 0.0794 µM [rising, partial curve].
`COc1ccccc1CNc1ncnc2ccc(-c3ccoc3)cc12`: the AC50 under setting [1] was 10 µM [falling, partial curve] and the AC50 under setting [2] is 12.6 µM [falling, partial curve].
As for `CCCCCCC/C=C\CCCCCCCCC(=O)O`, the AC50 is, setting by setting: under setting [1], 5.62 µM [falling, partial curve, poor fit]; under setting [2], 6.31 µM [falling, single point].
As to `Cc1ccc(C(=O)NNC(=S)NC(=O)c2ccc(Cl)cc2Cl)cc1`, under setting [2], the AC50 was 17.8 µM [rising, single point].
Consider `COc1cccc(C(=O)N(Cc2cccnc2)c2nc3c(OC)ccc(C)c3s2)c1OC`, for which the concentration at half-maximal activity (AC50) under setting [2] was 3.98 µM [rising, full curve, poor fit].
Take `COc1ccccc1OCCSc1nc2ccc([N+](=O)[O-])cc2s1`: the AC50 under setting [2] is 17.8 µM [rising, partial curve].
As to `CC(=O)NC(=S)Nc1ccccc1C(=O)NC1CCCCC1`, the AC50 under setting [2] is 12.6 µM [rising, partial curve].
Take `COc1ccc(NC(=O)c2ccc(COc3ccccc3Br)o2)cc1OC`: the concentration at half-maximal activity (AC50) under setting [2] was 11.2 µM [rising, partial curve].
On to `COc1ccccc1NS(=O)(=O)c1cc(C(=O)NCCC(C)C)ccc1F`, for which the AC50 under setting [1] was 0.00501 µM [falling, full curve, poor fit].
For the compound `Cn1nc(C(=O)NCc2cccc(Cl)c2)c2c1-c1ccccc1S(=O)(=O)C2`, under setting [1], the AC50 is 5.01 µM [falling, partial curve, poor fit].
For `CCCCNC(=O)c1ccc(CS(=O)(=O)c2cccc(C(F)(F)F)c2)o1`, under setting [2], the AC50 was 35.5 µM [rising, single point].
On to `Cc1c(C(=O)NCc2ccccn2)sc2nc(-c3ccc(F)cc3)cn12`, for which the AC50 under setting [1] was 17.8 µM [rising, single point].
For `CCOC(=O)Cn1c(=O)n(C2CCCCC2)c2nc(-c3ccc(CC)cc3)nc(C(N)=O)c21`, the AC50 reads like this: under setting [1], 4.47 µM [rising, full curve]; under setting [2], 4.47 µM [rising, full curve, poor fit].
Regarding `N#CC(C(=O)OCc1ccccc1)c1nc2ccccc2nc1N1CCOCC1` (stereo not given), the AC50 was 15.8 µM [rising, single point] under setting [1] and 3.98 µM [rising, single point] under setting [2].
For `CC(=O)Nc1nc(COc2ccc3ccccc3c2)cs1`, under setting [2], the AC50 was 8.91 µM [rising, partial curve].
`Cc1ccccc1N(C)S(=O)(=O)c1nnc(NC(=O)c2ccccc2F)s1`: the AC50 under setting [2] is 8.91 µM [rising, partial curve, poor fit].
Regarding `Cc1ccc(S(=O)(=O)NCCc2csc(-c3ccc(Cl)cc3)n2)cc1`, the AC50 under setting [1] was 35.5 µM [falling, single point] and the AC50 under setting [2] is 35.5 µM [falling, partial curve].
`Cc1ccc(NC(=O)C(=O)NCCc2sc(-c3ccc(Cl)cc3)nc2C)cc1C`: the AC50 was 8.91 µM [falling, partial curve] under setting [1] and 14.1 µM [falling, partial curve, poor fit] under setting [2].
As for `O=C(Nc1ccncc1)c1cccs1`, the AC50 under setting [1] is 31.6 µM [rising, single point].
Take `COc1ccc(F)cc1S(=O)(=O)NCC(c1ccco1)S(=O)(=O)c1ccc(F)cc1` (stereo not given): the AC50 under setting [2] is 6.31 µM [rising, partial curve].
On to `Cc1ccc(-c2cc(C(=O)Nc3nccs3)c3ccccc3n2)o1`, for which the AC50 under setting [2] is 28.2 µM [rising, single point].
With `CCN(CC(=O)Nc1ccccc1OC)C(=O)Cn1cnc2ccccc2c1=O`, the AC50 under setting [2] was 0.02 µM [falling, full curve, poor fit].
With `O=Nc1c2nc3ccccc3n(O)c-2c2ccccc12`, the AC50 under setting [2] was 11.2 µM [rising, partial curve].
With `O=C(Nc1ccc(-n2nncc2-c2ccccc2)cc1)c1cccc(F)c1`, the AC50 was 2.51 µM [falling, full curve, poor fit] under setting [1] and 0.316 µM [falling, full curve] under setting [2].
As to `Cc1c(-c2ccccc2)oc2c(C(=O)OCCN3CCCCC3)cccc2c1=O`, the AC50 reads like this: under setting [1], 1.12 µM [rising, single point]; under setting [2], 1.26 µM [rising, single point].
Turning to `COCCn1c(C)cc(C(=O)CSc2cc(C)c3ccc(OC)cc3n2)c1C`, under setting [2], the AC50 is 35.5 µM [rising, single point].
For the compound `O=C(O)CSCC(=O)N1CCN(S(=O)(=O)c2ccccc2)CC1`, the AC50 under setting [1] was 0.0178 µM [falling, full curve, poor fit] and the AC50 under setting [2] is 0.00631 µM [falling, full curve, poor fit].
Consider `COc1ccc(Nc2nnc(SCc3cn4c(C)cccc4n3)s2)cc1`, for which the AC50 under setting [2] was 35.5 µM [rising, single point].
Consider `CCOc1ccc2c(c1)C(c1cccs1)=NNC(c1cccnc1)=N2`, for which the AC50 under setting [2] is 11.2 µM [rising, single point].
On to `CCCNS(=O)(=O)c1ccc(CCC(=O)NCc2ccc3c(c2)OCO3)cc1`, for which the AC50 runs as follows: under setting [1], 25.1 µM [rising, single point]; under setting [2], 35.5 µM [rising, single point].
As to `Cc1cc(Cl)cc(Cl)c1OCC(=O)NCc1ccco1`, the AC50 under setting [2] is 0.0316 µM [falling, full curve, poor fit].
For `Cn1nc(C(=O)NNc2c(F)c(F)cc(F)c2F)c2ccccc2c1=O`, the AC50 under setting [2] is 17.8 µM [rising, partial curve, poor fit].
Consider `COCCN(Cc1cc2cc3c(cc2nc1Cl)OCO3)C(=O)Nc1ccccc1OC`, for which the AC50 under setting [2] is 12.6 µM [rising, partial curve].
Consider `Cc1cc(C)c2oc(C(=O)Nc3ccc(S(=O)(=O)N4CCCC(C)C4)cc3)cc(=O)c2c1` (stereo not given), for which, under setting [1], the AC50 was 12.6 µM [rising, partial curve, poor fit].
In the case of `O=c1cc(-c2ccccc2)[nH]c2ccc(F)cc12`, the AC50 is, setting by setting: under setting [1], 5.62 µM [rising, single point]; under setting [2], 14.1 µM [rising, single point].
Turning to `Nc1ncnc(Nc2cccc(Cl)c2Cl)n1`, the AC50 is, setting by setting: under setting [1], 0.112 µM [rising, partial curve]; under setting [2], 0.0178 µM [rising, full curve, poor fit].
`CCN1CCC2(CC1)N=C(c1ccc(F)cc1)C(=S)N2C(=O)c1ccc(C)cc1`: the AC50 under setting [2] was 35.5 µM [rising, single point].
As for `CCCn1cnc2c(cnn2-c2ccc(F)cc2)c1=O`, the AC50 under setting [2] is 14.1 µM [rising, single point].
Turning to `CC1=C(C(=O)Nc2ccccc2)C(c2ccc(C(=O)O)cc2)n2ncnc2N1` (stereo not given), the AC50 under setting [2] was 12.6 µM [rising, partial curve, poor fit].
Regarding `Cc1ccc(NC(=O)CCCn2c(=O)c3cccn3c3ccccc32)c(C)c1`, the AC50 under setting [1] was 0.794 µM [rising, full curve, poor fit] and the AC50 under setting [2] is 6.31 µM [rising, partial curve, poor fit].
On to `COc1cc(C(=O)c2ccccc2Cl)c([N+](=O)[O-])cc1OC`, for which the AC50 runs as follows: under setting [1], 0.224 µM [rising, full curve]; under setting [2], 0.794 µM [rising, partial curve].
In the case of `C=CCN=c1scc(-c2ccc(F)cc2)n1/N=C/c1ccccn1`, the AC50 under setting [2] is 14.1 µM [rising, single point].
In the case of `O=C(Cc1ccc(Cl)c(Cl)c1)Nc1ccccc1N1CCOCC1`, under setting [2], the AC50 was 5.62 µM [falling, single point].
On to `Cc1ccc(-c2csc(NC(=O)c3cccc(S(=O)(=O)N4CCN(C)CC4)c3)n2)cc1`, for which the AC50 by setting is: under setting [1], 12.6 µM [rising, partial curve, poor fit]; under setting [2], 14.1 µM [rising, partial curve].
